Values from PubChem BioAssay AID1259405 (NCATS, 2018).
Screen: 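Knock-downs that lift recombinant protein yield in hamster ovary cells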 (primary screen). Cell system: Chinese hamster CHO-K1 ovary cells with stable secreted eGFP expression. Reagent: single siRNA against mouse genes, 0.8 pmol siRNA per well (2 µl of 400 nM stock). Timing: 3 days. Detection: 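Percent of the per-plate non-targeting control median for intracellular GFP per well by laser scanning cytometry and for cell viability by ATP luminescence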. Direction: GFP, % of control: higher = more GFP per well, higher productivity; viability (ATP), % of control: higher = more viable cells (more ATP). Active means: 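Called active when intracellular GFP, relative to negative control, is at or above 120%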.
This is an unselected part of about 50,000 reagents. About 4,000 of all reagents (8%) count as active. 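Mouse siRNA library applied to hamster cells; one well for each siRNA.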 Reagents against one gene are numbered here.

gene knocked down | reagent no. | GFP, % of control | viability (ATP), % of control | Call
Vezt (vezatin, adherens junctions transmembrane protein) | 1 | 70.4 | 79.3 | inactive
Vezt (vezatin, adherens junctions transmembrane protein) | 2 | 74.4 | 83 | inactive
Vezt (vezatin, adherens junctions transmembrane protein) | 3 | 47.4 | 53.4 | inactive
Zc3h14 (zinc finger CCCH type containing 14) | 1 | 59.4 | 51 | inactive
Zc3h14 (zinc finger CCCH type containing 14) | 2 | 21.1 | 26.9 | inactive
Zc3h14 (zinc finger CCCH type containing 14) | 3 | 68.8 | 74.1 | inactive
Or6d13 (olfactory receptor family 6 subfamily D member 13) | 1 | 39.6 | 21.5 | inactive
Or6d13 (olfactory receptor family 6 subfamily D member 13) | 2 | 83.9 | 98.3 | inactive
Or6d13 (olfactory receptor family 6 subfamily D member 13) | 3 | 62.2 | 65.7 | inactive
Srm (spermidine synthase) | 1 | 72.2 | 76.1 | inactive
Srm (spermidine synthase) | 2 | 79.5 | 117 | inactive
Srm (spermidine synthase) | 3 | 105 | 95.6 | inactive
Abcg1 (ATP binding cassette subfamily G member 1) | 1 | 153 | 68 | active
Abcg1 (ATP binding cassette subfamily G member 1) | 2 | 40 | 43.2 | inactive
Abcg1 (ATP binding cassette subfamily G member 1) | 3 | 89.3 | 83.5 | inactive
Siglech (sialic acid binding Ig-like lectin H) | 1 | 86.4 | 80.5 | inactive
Siglech (sialic acid binding Ig-like lectin H) | 2 | 45.6 | 65.9 | inactive
Siglech (sialic acid binding Ig-like lectin H) | 3 | 90.8 | 67.6 | inactive
Osgepl1 (O-sialoglycoprotein endopeptidase-like 1) | 1 | 74.9 | 87.6 | inactive
Osgepl1 (O-sialoglycoprotein endopeptidase-like 1) | 2 | 77.7 | 80.8 | inactive
Osgepl1 (O-sialoglycoprotein endopeptidase-like 1) | 3 | 91.1 | 75.8 | inactive
Or2a14 (olfactory receptor family 2 subfamily A member 14) | 1 | 67.6 | 38 | inactive
Or2a14 (olfactory receptor family 2 subfamily A member 14) | 2 | 79.6 | 83.2 | inactive
Or2a14 (olfactory receptor family 2 subfamily A member 14) | 3 | 91.9 | 89.8 | inactive
Ccdc126 (coiled-coil domain containing 126) | 1 | 123 | 90.8 | active
Ccdc126 (coiled-coil domain containing 126) | 2 | 66.7 | 52.1 | inactive
Ccdc126 (coiled-coil domain containing 126) | 3 | 62.5 | 67.6 | inactive
Or8k17 (olfactory receptor family 8 subfamily K member 17) | 1 | 43.4 | 41.9 | inactive
Or8k17 (olfactory receptor family 8 subfamily K member 17) | 2 | 117 | 56.7 | inactive
Or8k17 (olfactory receptor family 8 subfamily K member 17) | 3 | 61.5 | 79.3 | inactive
Gabrb1 (gamma-aminobutyric acid type A receptor subunit beta 1) | 1 | 86.2 | 107 | inactive
Gabrb1 (gamma-aminobutyric acid type A receptor subunit beta 1) | 2 | 55 | 48.9 | inactive
Gabrb1 (gamma-aminobutyric acid type A receptor subunit beta 1) | 3 | 29.3 | 22 | inactive
Aoc1 (amine oxidase, copper-containing 1) | 1 | 80.6 | 81 | inactive
Aoc1 (amine oxidase, copper-containing 1) | 2 | 90.5 | 49.8 | inactive
Aoc1 (amine oxidase, copper-containing 1) | 3 | 49.8 | 57.6 | inactive
Gpatch2l (G patch domain containing 2 like) | 1 | 78.6 | 75.7 | inactive
Gpatch2l (G patch domain containing 2 like) | 2 | 63.8 | 58.2 | inactive
Gpatch2l (G patch domain containing 2 like) | 3 | 114 | 96 | inactive
Hint3 (histidine triad nucleotide binding protein 3) | 1 | 67.5 | 80 | inactive
Hint3 (histidine triad nucleotide binding protein 3) | 2 | 72.5 | 84.5 | inactive
Hint3 (histidine triad nucleotide binding protein 3) | 3 | 59.6 | 39.9 | inactive
Mrpl21 (mitochondrial ribosomal protein L21) | 1 | 58.6 | 74.1 | inactive
Mrpl21 (mitochondrial ribosomal protein L21) | 2 | 90.5 | 100 | inactive
Mrpl21 (mitochondrial ribosomal protein L21) | 3 | 89.9 | 93.1 | inactive
Prep (prolyl endopeptidase) | 1 | 105 | 90.7 | inactive
Prep (prolyl endopeptidase) | 2 | 63.1 | 55.2 | inactive
Prep (prolyl endopeptidase) | 3 | 80.1 | 59.5 | inactive
Itgb8 (integrin beta 8) | 1 | 50.8 | 50.1 | inactive
Itgb8 (integrin beta 8) | 2 | 75.1 | 50.9 | inactive
Itgb8 (integrin beta 8) | 3 | 75.1 | 96.1 | inactive
Adamts4 (ADAM metallopeptidase with thrombospondin type 1 motif 4) | 1 | 40.4 | 72.6 | inactive
Adamts4 (ADAM metallopeptidase with thrombospondin type 1 motif 4) | 2 | 85.5 | 59.6 | inactive
Adamts4 (ADAM metallopeptidase with thrombospondin type 1 motif 4) | 3 | 61.4 | 53.3 | inactive
Pamr1 | 1 | 130 | 76.6 | active
Pamr1 | 2 | 23.1 | 31.9 | inactive
Pamr1 | 3 | 78.4 | 73.3 | inactive
Ezh1 (enhancer of zeste 1 polycomb repressive complex 2 subunit) | 1 | 69.8 | 82 | inactive
Ezh1 (enhancer of zeste 1 polycomb repressive complex 2 subunit) | 2 | 82.8 | 60.4 | inactive
Ezh1 (enhancer of zeste 1 polycomb repressive complex 2 subunit) | 3 | 59.8 | 79.6 | inactive
Atp2b2 (ATPase, Ca++ transporting, plasma membrane 2) | 1 | 38.2 | 70.8 | inactive
Atp2b2 (ATPase, Ca++ transporting, plasma membrane 2) | 2 | 56.9 | 69.9 | inactive
Atp2b2 (ATPase, Ca++ transporting, plasma membrane 2) | 3 | 36.5 | 52.2 | inactive
Elk1 (ETS transcription factor ELK1) | 1 | 73.5 | 47.7 | inactive
Elk1 (ETS transcription factor ELK1) | 2 | 79.6 | 56.4 | inactive
Elk1 (ETS transcription factor ELK1) | 3 | 92.1 | 98 | inactive
Hexim1 (hexamethylene bis-acetamide inducible 1) | 1 | 78.7 | 96.6 | inactive
Hexim1 (hexamethylene bis-acetamide inducible 1) | 2 | 106 | 43.2 | inactive
Hexim1 (hexamethylene bis-acetamide inducible 1) | 3 | 148 | 107 | active
Slamf6 (SLAM family member 6) | 1 | 88.6 | 142 | inactive
Slamf6 (SLAM family member 6) | 2 | 72.6 | 79.7 | inactive
Pkhd1 (polycystic kidney and hepatic disease 1) | 1 | 63 | 65.9 | inactive
Pkhd1 (polycystic kidney and hepatic disease 1) | 2 | 91.9 | 86.5 | inactive
Pkhd1 (polycystic kidney and hepatic disease 1) | 3 | 86.8 | 69.2 | inactive
Gk5 (glycerol kinase 5) | 1 | 101 | 79.1 | inactive
Gk5 (glycerol kinase 5) | 2 | 124 | 77.9 | active
Gk5 (glycerol kinase 5) | 3 | 88 | 74.9 | inactive
Epb41l2 (erythrocyte membrane protein band 4.1 like 2) | 1 | 66 | 74.4 | inactive
Epb41l2 (erythrocyte membrane protein band 4.1 like 2) | 2 | 70.9 | 74.7 | inactive
Epb41l2 (erythrocyte membrane protein band 4.1 like 2) | 3 | 73.8 | 86.1 | inactive
Magea6 (MAGE family member A6) | 1 | 63.9 | 68.4 | inactive
Magea6 (MAGE family member A6) | 2 | 96.5 | 64.3 | inactive
Magea6 (MAGE family member A6) | 3 | 64.3 | 57.5 | inactive
Slc25a36 | 1 | 128 | 143 | active
Slc25a36 | 2 | 92.6 | 90.3 | inactive
Slc25a36 | 3 | 77.9 | 63.4 | inactive

Part of the list above in another layout:
Gabrb1 (gamma-aminobutyric acid type A receptor subunit beta 1) #2
- GFP, % of control: 55
- viability (ATP), % of control: 48.9
- Call: inactive

Gabrb1 (gamma-aminobutyric acid type A receptor subunit beta 1) #3
- GFP, % of control: 29.3
- viability (ATP), % of control: 22
- Call: inactive

Aoc1 (amine oxidase, copper-containing 1) #1
- GFP, % of control: 80.6
- viability (ATP), % of control: 81
- Call: inactive

Aoc1 (amine oxidase, copper-containing 1) #2
- GFP, % of control: 90.5
- viability (ATP), % of control: 49.8
- Call: inactive
